Laboratory results as given in PubChem BioAssay AID493014 (National Center for Advancing Translational Sciences (NCATS), 2011).
Out of some 340,000 compounds screened, about 170 (0.05%) were called active. The shares of active, inactive and inconclusive entries below differ from those in the screen. The call rests on the fitted dose curve; in most records, active means well fitted inhibition curve with a large enough effect in the signal ratio, with a control signal flat (not every such curve was filed as active); inconclusive means small, poorly fitted or top-dose-only effect, or effect the other way, or a change in a side signal; inactive means flat fitted curve, though single readings scatter; the % refers to the signal ratio. Potencies beside an inconclusive call are fits to weak or partial responses and may not hold up.
Potency means the concentration at half of the fitted maximal effect.

Test: qHTS Assay to Find Inhibitors of Chronic Active B-Cell Receptor Signaling;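 on activity change, negative = inhibition: plate controls were basal doxycycline-induced cells for no effect and cells given 10 µM MG132 for full effect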
Settings: ABC-DLBCL IkBa-CBG/CBR reporter, luminescence ratio (green luciferase fused to IkBa over red control in TMD8 lymphoma cells), 4 h; activity change, negative = inhibition: at 46.1 µM (top of the series)
Method in brief: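 Doxycycline induced both beetle luciferases in TMD8 lymphoma cells; IKK-driven degradation limits the IkappaBalpha-fused green signal, while red luminescence normalises for cell number and nonspecific effects. Compounds tested up to 46 uM, 4 hrs.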
For `Cc1cccc(-n2ccnc2SCC(=O)Nc2nnc(C)s2)c1`, the activity change, negative = inhibition was “inactive”.
In the case of `Cc1c(C(=O)Nc2ccc(F)cc2)oc2ccc(S(=O)(=O)N3CCCC3)cc12`, the activity change, negative = inhibition is reported as inconclusive: 1.7%.
With `COc1ccc(-c2c(C(C)=O)c(C)nc3sc4c(=N)n(N)cnc4c23)cc1` the activity change, negative = inhibition was “inactive”.
With `COc1ccccc1OCC(=O)Nc1oc(-c2ccccc2)c(-c2ccccc2)c1C#N` the activity change, negative = inhibition was inconclusive: 12.4%.
For `O=[N+]([O-])c1ccc(O)c(/C=N/NC(=S)Nc2ccc(Cl)cc2Cl)c1`, the activity change, negative = inhibition was inconclusive: 13.2%.
With `CC(C)c1ccc(NC(=S)NC2CCCCCC2)cc1` the activity change, negative = inhibition was “inactive”.
For `N#Cc1cc2c(nc1S(=O)(=O)Cc1ccccc1)CCCC2`, the activity change, negative = inhibition was “inactive”.
In the case of `CCc1cc2c(SCC(=O)Nc3ccc(Cl)cn3)ncnc2s1`, the activity change, negative = inhibition is reported as inconclusive: 0.0555%.
In the case of `C=CCNC(=S)N1CCN(Cc2ccccc2)CC1`, the Potency is reported as inconclusive: 35.5 µM [falling, single point].
For `COC(C(=O)Nc1c(F)cccc1F)c1ccccc1` (stereo not given), the activity change, negative = inhibition was inconclusive: -2.75%.
In the case of `Cc1nnc(SCC(=O)NC(=O)Nc2ccc3c(c2)OCCO3)s1`, the Potency is reported as inconclusive: 14.1 µM [falling, single point].
In the case of `CC(=O)c1ccc(N2CCN(C(=O)c3nn(Cc4ccccc4)c(=O)c4ccccc34)CC2)cc1`, the Potency is reported as inconclusive: 1.78 µM [falling, partial curve, poor fit].
For `Cc1cc(S(=O)(=O)NCC(c2ccccc2)c2ccccc2)ccc1-n1cnnn1`, the activity change, negative = inhibition was inconclusive: 12.1%.
With `O=C(Nc1cccs1)Nc1c(F)cc(F)cc1Br` the activity change, negative = inhibition was “inactive”.
In the case of `COC(=O)c1[nH]c2ccccc2c1NC(=O)CNC1CCCCC1`, the activity change, negative = inhibition is reported as inconclusive: 4.7%.
For `Clc1cccc(N/N=C/c2ccncc2)c1`, the activity change, negative = inhibition was inconclusive: -3.06%.
For `N=c1n(CCN2CCCCC2)c2ccccc2n1CC(=O)c1cccs1`, the activity change, negative = inhibition was inconclusive: -13.8%.
With `O=c1[nH]c2c(oc3ccccc32)c(=O)n1Cc1ccccc1` the activity change, negative = inhibition was inconclusive: 7.08%.
For `CC1S/C(=N/N=C/c2ccco2)N(Cc2ccccc2)C1=O` (stereo not given), the activity change, negative = inhibition was “inactive”.
For `C=CCNC(=S)NCc1ccccc1`, the activity change, negative = inhibition was inconclusive: -0.845%.
With `COc1ccc(OC)c(/C=C2\Oc3cc(OCC(=O)N4CCC(C(=O)O)CC4)ccc3C2=O)c1` the activity change, negative = inhibition was inconclusive: 12.2%.
With `COc1ccccc1CC(=O)NC1CCN(Cc2ccccc2)CC1` the activity change, negative = inhibition was inconclusive: 9.05%.
In the case of `CC(Nc1c([N+](=O)[O-])c(=O)oc2ccccc12)C(Cl)c1ccccc1` (stereo not given), the activity change, negative = inhibition is reported as inconclusive: -7.72%.
In the case of `CNC[C@H](CC1CCCCC1)NC[C@H](CO)NCC1(c2ccccc2)CC1`, the Potency is reported as inconclusive: 11.2 µM [falling, partial curve].
In the case of `CC(C)OC(=O)Nc1ccc(Oc2c(F)c(F)c(F)c(F)c2F)cc1`, the activity change, negative = inhibition is reported as “inactive”.
In the case of `O=C(CSc1nnc(-c2ccccc2F)o1)N1CCCC1`, the activity change, negative = inhibition is reported as “inactive”.
For `CC(C)(C)NC(=O)NC(=O)COc1ccccc1C#N`, the Potency was inconclusive: 23.1 µM [falling, single point].
In the case of `O=C(Nc1nc2ccc(F)cc2s1)C1=NN(c2ccccc2)C(=O)CC1`, the activity change, negative = inhibition is reported as inconclusive: 0.82%.
For `N/C(=N\c1nc2ccccc2o1)NC(=O)C(Cc1ccccc1)N1C(=O)c2ccccc2C1=O` (stereo not given), the activity change, negative = inhibition was inconclusive: 10.8%.
For `O=C(N/N=C/C(Cl)=C/c1ccccc1)c1ccncc1`, the Potency was inconclusive: 20 µM [falling, single point].
In the case of `Cc1cc(C)c2nc3nc(C)c(C)cc3c(N)c2c1`, the Potency is reported as inconclusive: 35.5 µM [falling, partial curve, poor fit].
With `O=C(CCCN1C(=O)/C(=C/c2cccs2)SC1=S)Nc1ccccn1` the Potency was inconclusive: 11.2 µM [falling, partial curve].
For `C=CCOC(=O)c1ccccc1C(=O)OCC=C`, the activity change, negative = inhibition was inconclusive: 0.936%.
In the case of `O=C(Nc1ccc(F)cc1)C1CCCN(S(=O)(=O)c2cccc3cccnc23)C1` (stereo not given), the activity change, negative = inhibition is reported as “inactive”.
In the case of `C1=C[C@@H]2CCN(Cc3ccccc3)Cc3cccc(c32)C1`, the activity change, negative = inhibition is reported as inconclusive: -0.905%.
With `C#CCn1c(=NC(=O)c2ccc(Br)s2)sc2cccc(OC)c21` the Potency was inconclusive: 23.1 µM [falling, partial curve].
For `Cn1nc(C(F)(F)F)c2cc(C(=O)Nc3ccc(F)cc3)sc21`, the activity change, negative = inhibition was inconclusive: -28.4%.
With `COCCNC(=O)c1ccc(CS(=O)(=O)c2ccc(C)cc2)o1` the activity change, negative = inhibition was inconclusive: -3.89%.
For `O=C(NCCCN1CCOCC1)c1ccc2c(=O)n(CCc3ccccc3)c(=O)[nH]c2c1`, the activity change, negative = inhibition was inconclusive: -2.39%.
With `O=C(Nc1cc(Cl)ccc1N1CCOCC1)c1ccco1` the activity change, negative = inhibition was “inactive”.
For `CC1CCc2nc3ccc(S(=O)(=O)N4CCC(C(=O)NC5CCCC5)CC4)cc3c(C(=O)O)c2C1` (stereo not given), the activity change, negative = inhibition was inconclusive: 7.98%.
In the case of `NS(=O)(=O)c1ccc(CNC(=O)c2cc(=O)c3ccccc3o2)cc1`, the activity change, negative = inhibition is reported as inconclusive: 4.02%.
With `CCN(CC)c1ccc(/C=N/NC(=O)c2cc3ccccc3[nH]2)cc1` the Potency was inconclusive: 17.8 µM [falling, partial curve, poor fit].
With `CCOC(=O)c1ccc(NC(=O)c2cc(C)nc3ccccc23)cc1` the activity change, negative = inhibition was “inactive”.
For `CC(=O)N1CCC(N(C(=O)Nc2ccc(F)cc2)C2CCCC2)CC1`, the activity change, negative = inhibition was inconclusive: 5.65%.
With `Cn1c(SCc2ccc(C#N)cc2Cl)nc2ccccc21` the activity change, negative = inhibition was inconclusive: -1.98%.
In the case of `C[C@@]12C(=O)N(Cc3ccc(Cl)cc3)CC(=O)N1[C@H]1c3ccccc3OC[C@@H]1[C@@H]2c1ccccc1`, the activity change, negative = inhibition is reported as inconclusive: 12.1%.
For `Cc1cccn2c(=O)c(C(=O)NCc3cccc(F)c3)cnc12`, the activity change, negative = inhibition was “inactive”.
For `CSc1ccc(S(=O)(=O)NCC(=O)OCC(=O)N2CCC(C)CC2)cc1[N+](=O)[O-]`, the activity change, negative = inhibition was inconclusive: -0.847%.
For `C=CCc1ccc(OCc2ccc(C(=O)OC)o2)c(OC)c1`, the Potency was inconclusive: 25.9 µM [falling, partial curve].
In the case of `O=C(NC(=S)NC1CCCc2ccccc21)c1ccc(F)cc1` (stereo not given), the activity change, negative = inhibition is reported as inconclusive: 22.4%.
In the case of `Cc1ccc(S(=O)(=O)Nc2ccc(SC(F)F)cc2)c(C)c1`, the activity change, negative = inhibition is reported as “inactive”.
For `Brc1ccsc1-c1csc(-c2ccncc2)n1`, the activity change, negative = inhibition was inconclusive: -0.615%.
For `O=C(N/N=C/C=C/c1ccco1)c1cccs1`, the Potency was inconclusive: 35.5 µM [rising, partial curve].
For `CC(C)c1ccc(NC(=O)CCNC(=O)Cn2cnc3ccccc3c2=O)cc1`, the activity change, negative = inhibition was inconclusive: 0.365%.
For `CC(=O)Nc1cccc(C(=O)Nc2nc(C)cs2)c1`, the activity change, negative = inhibition was inconclusive: 4.96%.
In the case of `Cc1cccc(NC(=O)NCc2ccc3[nH]c(C)cc3c2)c1`, the Potency is reported as inconclusive: 8.91 µM [falling, partial curve, poor fit].
For `CCc1ccc2[nH]c(=O)c(CN(Cc3ccccc3OC)C(=O)Nc3ccccc3OC)cc2c1`, the activity change, negative = inhibition was “inactive”.
With `O=C(O)c1cc2c(cc1NC(=O)c1c(F)cccc1F)OCCCO2` the Potency was inconclusive: 17.8 µM [falling, partial curve].
In the case of `Cc1onc(-c2ccccc2)c1C(=O)NC(=S)NNC(=O)c1ccccc1O`, the Potency is reported as inconclusive: 23.1 µM [cytotoxic, single point].
With `CCC(=O)NC(=S)Nc1ccc(NC(=S)NC(=O)c2ccccc2)cc1` the Potency was inconclusive: 3.55 µM [falling, full curve].
In the case of `O=C(O)Cn1c(O)c(C=Nc2ccccc2)sc1=S`, the activity change, negative = inhibition is reported as inconclusive: 7.37%.
For `C=CCC[C@@H](Cc1ccc(F)cc1)C(=O)OC[C@@H](NC(=O)[C@H](CC=C)CC(=O)NCCO)C(C)(C)C`, the activity change, negative = inhibition was inconclusive: -2.01%.
With `CCOCCCn1cc(C(=O)c2cc(Br)ccc2O)cc(C#N)c1=O` the activity change, negative = inhibition was “inactive”.
With `Cc1cc(C(=O)NNC(=O)[C@H](C)NC(=O)c2ccc(Br)cc2)c(C)o1` the activity change, negative = inhibition was “inactive”.
With `O=C(Nc1ccc(N2CCOCC2)c(Cl)c1)c1ccc(Cl)cc1` the activity change, negative = inhibition was inconclusive: 2.97%.
For `COc1ccc(Cl)cc1C(=O)O/N=C(\N)c1ccccn1`, the activity change, negative = inhibition was “inactive”.
For `COC(=O)c1ccc(COc2ccc(C)c(C)c2)o1`, the activity change, negative = inhibition was inconclusive: -4.33%.
With `CCOC(=O)c1c(/N=C/C2=C(O)CCCC2=O)sc(C)c1C` the activity change, negative = inhibition was “inactive”.
For `CC1(C)Cc2nc3sc4c(N5CCCC5)nnnc4c3cc2CO1`, the activity change, negative = inhibition was inconclusive: 15.4%.
For `CC1CCN(c2cc(=O)n(C3CCCCC3)c(=O)[nH]2)CC1`, the activity change, negative = inhibition was inconclusive: 13.9%.
In the case of `O=C(NC(=S)NCc1cccnc1)c1ccccc1`, the activity change, negative = inhibition is reported as inconclusive: 7.48%.
For `O=C(CCN1C(=O)CSc2ccccc21)Nc1cccc(C(F)(F)F)c1`, the activity change, negative = inhibition was inconclusive: 9.5%.
With `CCOc1ccc2ccccc2c1C(=O)N1CCOCC1` the activity change, negative = inhibition was inconclusive: 9.34%.
In the case of `CC(=O)c1ccc(NC(=O)NC2CCCc3ccccc32)cc1` (stereo not given), the Potency is reported as inconclusive: 11.2 µM [falling, partial curve, poor fit].
With `COc1cccc(CC2(CO)CCCN(Cc3c(C)cc(C)cc3-n3cccn3)C2)c1` (stereo not given) the activity change, negative = inhibition was “inactive”.
For `CCCS(=O)(=O)N1CCN(CC2CC3C=CC2C3)CC1` (stereo not given), the activity change, negative = inhibition was “inactive”.
For `O=C(CSc1nccn(-c2ccc(F)c(Cl)c2)c1=O)NC1CCCC1`, the Potency was inconclusive: 4.61 µM [falling, full curve].
With `O=C(CCc1ccccc1)NC(NC(=S)Nc1cccc(Cl)c1)C(Cl)(Cl)Cl` (stereo not given) the activity change, negative = inhibition was “inactive”.
With `O=C(COC(=O)/C=C/c1ccco1)NCc1ccccc1` the activity change, negative = inhibition was inconclusive: 15.3%.
For `C=CCOC(=O)C1=C[C@@H](c2ccc3c(c2)OCO3)C[C@@H](OCc2ccc(CO)cc2)O1`, the activity change, negative = inhibition was inconclusive: 8.57%.
With `Cc1ccc(S(=O)(=O)Nc2ccccc2C(=O)N2CCCCCC2)cc1` the activity change, negative = inhibition was “inactive”.
With `CCOc1ccccc1NC(=O)NC1(C(=O)N2CCOCC2)CCCCC1` the activity change, negative = inhibition was inconclusive: 5.17%.
With `O=C(Nc1ncc(Cc2ccccc2)s1)C1CCCO1` (stereo not given) the activity change, negative = inhibition was inconclusive: -18.6%.
In the case of `Clc1ccccc1/C=C/c1nc(-c2ccccn2)no1`, the Potency is reported as inconclusive: 35.5 µM [rising, single point].
